From PubChem BioAssay AID493014 (National Center for Advancing Translational Sciences (NCATS), 2011) come the findings set out here.

This is one part of the list. Shown are side measurements of this screen, not its main read-out; they come without a call. Most of these compounds were active or inconclusive in the main read-out, so they are no random draw. The note in brackets gives the kind of curve behind each potency; many fits are weak.

This assay can be described thus: qHTS Assay to Find Inhibitors of Chronic Active B-Cell Receptor Signaling. The settings on record: ABC-DLBCL IkBa-CBG/CBR reporter, luminescence ratio (green luciferase fused to IkBa over red control in TMD8 lymphoma cells), 4 h; measured here: CBR red luminescence, cell number. In short, it runs like this: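 TMD8 ABC-DLBCL cells carrying doxycycline-inducible green luciferase fused to IkappaBalpha plus unfused red luciferase were exposed to compounds (up to 46 uM) for 4 hrs at 37C. Activity came from the overlap-corrected green/red luminescence ratio.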
For orientation: qHTS replaces the single test concentration by a dilution series.
Take `CNC(=O)CSCc1c(F)cccc1Cl`: the AC50 is 13 µM [rising, partial curve, poor fit]. For `Oc1ccc(/C=N/N2CCN(C3c4ccccc4-c4ccccc43)CC2)c(O)c1` the value was 35.5 µM [falling, single point]; for `COc1ccccc1C(C[N+](=O)[O-])c1c(N)n(C)c(=O)n(C)c1=O` (stereo not drawn), 7.08 µM [falling, partial curve]. As for `O=C(C(=O)N1CCN(c2ccc(F)cc2)CC1)N1CCCCC1`, the AC50 was 3.16 µM [rising, partial curve, poor fit]. With `CCc1ccc(C2C(C#N)=C(N)C(C#N)(C#N)C3=CCC(C(C)(C)C)CC32)cc1` (stereo not drawn) the figure was 20.6 µM [falling, partial curve, poor fit]. With `CCC(=O)NC(=S)Nc1cccc(NC(=O)c2ccccc2C)c1` the figure was 7.08 µM [falling, partial curve, poor fit]; with `Cc1cc(SCC(=O)N2CCC(c3noc4ccc(F)cc34)CC2)nc2ccccc12`, 0.58 µM [falling, full curve, poor fit]; with `O=C(CN(C(=O)CSc1nnc(COc2ccccc2)o1)c1ccc(F)cc1)NC1CCCCC1`, 3.66 µM [falling, full curve]. For `Cc1nn(Cc2ccc(Cl)cc2)c(=O)n1N(C)c1ncc(C(F)(F)F)cc1Cl` the value was 2.06 µM [falling, partial curve]; for `CCOc1ccccc1NC(=O)C1C2CCC(O2)C1C(=O)O` (stereo not drawn), 2.82 µM [rising, partial curve, poor fit]; for `COc1ccc2c(c1)nc(SCC(=O)c1ccc(Br)s1)n2C`, 35.5 µM [rising, single point]. `CCn1cc(S(=O)(=O)CC(=O)NC2CCCCC2)c2ccccc21`: the AC50 was 20 µM [falling, single point]. On to `O=C(COc1cccc2cccnc12)Nc1ccccc1`, for which the AC50 was 1.41 µM [falling, full curve, poor fit]. For `CCN(CC)S(=O)(=O)c1cc([N+](=O)[O-])ccc1N1CCC(C(N)=O)CC1` the value was 20 µM [rising, partial curve, poor fit]; for `Cc1ccc(S(=O)(=O)N2CCC(=O)N(C(COCc3ccc(C(F)(F)F)cc3)Cc3ccccc3)CC2)cc1` (stereo not drawn), 5.8 µM [rising, full curve, poor fit]; for `O=C(CCl)Nc1cc2[nH]c(=O)[nH]c2cc1Br`, 35.5 µM [rising, single point]. With `N#CC1=C(N)Oc2cc3ccccc3cc2C1c1cccs1` (stereo not drawn) the figure was 17.8 µM [falling, single point]. For `CC(=O)NC(CC(=O)NCCN1C(=O)S/C(=C\c2ccccc2)C1=O)c1ccccc1` (stereo not drawn) the value was 35.5 µM [falling, single point].

The term AC50 denotes the concentration giving half of the maximal activity seen.
